Data published in patent US11680082B2 (ENLITISA (SHANGHAI) PHARMACEUTICAL CO., LTD, priority 2018, dated 2023).
Some peptides are written in HELM: one residue between dots, names in brackets for other building blocks, links after the first $. Non-standard residues stand in square brackets, D forms with d. No end group written: not given here. Hyp = O=C(O)[C@@H]1C[C@@H](O)CN1; pS = N[C@@H](COP(=O)(O)O)C(=O)O

Test: general procedure: Fmoc solid-phase peptide synthesis; Fmoc-Lys(Boc)-Wang resin; Fmoc-Lys(Dde)-OH on a Wang resin (GL Biochem); TBTU, DIPEA

PEPTIDE1{A.K.P.S.Y.[Hyp].[Hyp].T.Y.K}|CHEM1{[MonSty]}|CHEM2{[MonSty]}$PEPTIDE1,CHEM1,2:R3-1:R2|PEPTIDE1,CHEM2,10:R3-1:R2$$$V2.0
final purity (method not given) (whole synthesis, LCMS, analysis column GS-120-5-C18-BIO 4.6*250 mm, UV at 220 nm, scale of the general procedure 9.15 g resin, 3 g resin): 90% to 95%

AKP[pS]Y[Hyp][Hyp]TYK
step yield (purification step, from the crude product): approximately 7%
crude mass (whole synthesis): 1.4 g
isolated mass (whole synthesis): 98 mg
